## Library screen at single concentrations

Sequences of proteins named here, by UniProt entry; tags and fusion partners are left off.
UniProt P9WFT3, whole entry: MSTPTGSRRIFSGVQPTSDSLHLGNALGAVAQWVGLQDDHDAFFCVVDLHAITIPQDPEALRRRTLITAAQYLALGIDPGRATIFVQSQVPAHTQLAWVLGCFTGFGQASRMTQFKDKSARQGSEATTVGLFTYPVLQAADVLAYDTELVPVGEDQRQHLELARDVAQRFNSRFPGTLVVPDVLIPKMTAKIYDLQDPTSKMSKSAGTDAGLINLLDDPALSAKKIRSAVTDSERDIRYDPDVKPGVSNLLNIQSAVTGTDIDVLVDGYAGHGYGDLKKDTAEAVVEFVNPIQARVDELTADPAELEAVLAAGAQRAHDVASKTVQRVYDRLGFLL
UniProt P9WNZ1, whole entry: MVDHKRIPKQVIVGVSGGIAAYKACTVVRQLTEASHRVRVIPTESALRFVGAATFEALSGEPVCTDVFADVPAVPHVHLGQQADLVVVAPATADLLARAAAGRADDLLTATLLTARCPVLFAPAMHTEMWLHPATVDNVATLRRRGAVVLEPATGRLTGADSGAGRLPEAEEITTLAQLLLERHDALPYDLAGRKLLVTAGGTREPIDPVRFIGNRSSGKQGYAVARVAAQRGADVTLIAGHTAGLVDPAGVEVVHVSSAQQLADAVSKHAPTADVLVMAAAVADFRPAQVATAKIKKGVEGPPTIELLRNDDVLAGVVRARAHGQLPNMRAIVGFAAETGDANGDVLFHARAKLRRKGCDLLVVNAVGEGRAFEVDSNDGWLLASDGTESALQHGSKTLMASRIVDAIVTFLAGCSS

The values are deposited in ChEMBL (CHEMBL3988442, “University of Dundee, Small-Polar-MMV Screening Library” (2021)).

A: 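Cell assay of Leishmania donovani living inside macrophages; the read-out is not stated. Tested at 30 µM. The record gives no direction; compounds that gave an IC50 in retests scored well above the rest, so higher reads as stronger inhibition. Size under these conditions: about 69,000 compounds, about 1,000 of them at 50% or above in at least one test.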
B: 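Tryptophan-tRNA ligase, Mycobacterium tuberculosis (UniProt P9WFT3). Enzyme assay of tryptophanyl-tRNA synthetase; the read-out is not stated. Compounds at 10 µM. Direction is not recorded; retested compounds ran higher, which suggests that high means inhibition. About 65,000 compounds were tested under these conditions; 0.098% (about 64) showed 50% or more at least once.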
C: 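Assay of Toxoplasma gondii numbers, read through their beta-galactosidase reporter with a colour substrate. Tested at 10 µM. The record gives no direction; the compounds picked for IC50 retests had high values, so higher reads as fewer parasites. Size under these conditions: about 67,000 compounds, about 260 of them at 50% or above in at least one test.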
D: 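Coenzyme A biosynthesis protein CoaBC, Mycobacterium tuberculosis (UniProt P9WNZ1). Enzyme assay of CoaBC with a phosphate dye (Biomol Green) read at 650 nm. Tested at 30 µM. Higher reads as stronger inhibition, judged from the few compounds that gave an IC50. Most strong results did not repeat in a second test. Size under these conditions: about 67,000 compounds, about 40 of them at 50% or above in at least one test.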

Results are given as percent effect. The controls that fix the scale are not given in the record; negative values are as filed. The compounds are a random part of those screened. Two or more numbers in one place are separate tests of the same structure; such repeats can differ widely. A dash means the value is not listed here; it may have been measured.

structure,A,B,C,D
Cc1cccc(CO[C@H]2CO[C@@]3(CCN(S(=O)(=O)N(C)C)C3)C2)n1,2.418,15.74,-11.06,-48.98
[H][C@]12CC[C@]([H])(CN(C(=O)c3cccnc3)C1)N(Cc1cccc(Cl)c1F)C2,44.82,-,3.284,-
NCc1ccccc1Sc1ccc(O)cc1.O=C(O)/C=C\C(=O)O,18.14,-,9.626,-
CC(C)(C)C(=O)N[C@H]1CC[C@H](Nc2nccc(-c3ccncc3)n2)C1,-0.4476 and 28.23,1.373,-1.627,3.053
COc1cccc(C(NCc2ccc(SC)cc2)c2nccn2C)c1 (stereo not given),-5.837,1.645,26.27,6.849
COc1ccc(N2Cc3nc(=O)n(C(C)C)n3C2=O)cc1,14.01,-1.19,-1.232,-1.263
O=C(O)C(F)(F)F.[H][C@@]12COC[C@H](C(=O)NCc3ccco3)[C@]1([H])CN(Cc1ccoc1)C2,14.1,-,-21.13,-
CS(=O)(=O)N1Cc2ccccc2C2(CCN(C(=O)c3ccno3)CC2)C1,21.26,-2.824,5.28,-0.4837
Cc1ccccc1SCC(=O)NC1CCC(O)CC1 (stereo not given),21.72,9.1,-0.5737,4.968
CN1CC2(CCN(c3nc(N)nc4c3CCNC4)CC2)OC1=O,25.86,0,-6.43,14.08
Cc1cccc(CNCC2(O)CCCN(CC3CCCCC3)C2=O)n1 (stereo not given),47.09,1.614,5.607,6.599
CCc1noc(CN(C)Cc2cc(Br)ccc2OC)n1,19.19,-2.835,6.194,-6.188
[H][C@]12CCN(C(=O)NC3CCCC3)CC[C@@]1([H])S(=O)(=O)N(CC)C2,-4.578,-,-4.304,-
CN(Cc1ccc(Cl)s1)C1CCCN(c2cccnn2)C1 (stereo not given),44.38,-4.979,-2.363,-1.754
COc1ccc(N(C(=O)c2ccc(C)nc2)C(C)C)cc1F,-9.632,0,5.716,-9.153
Cc1ccc(C)c(CC(=O)Nc2cccc(C(=O)N(C)C)n2)c1,-14.86,-5.027,1.784,0.9677
CCNCCc1nc2cc(F)ccc2[nH]1.Cl,9.041,-,-,-
COc1ccnc(NC(=O)c2ccsc2)c1,34.58,-26.18,-0.6456,-5.314
Cc1cccc(-c2noc([C@@H]3C[C@@H](O)CN3CC3CCCCC3)n2)c1,24.53,-2.695,2.956,5.806
Cc1cccc(CN2C[C@H](NS(C)(=O)=O)[C@@H]3OCCC[C@@H]32)n1,-,-1.784,-,2.665
CN1CC[C@H]2CN(C(=O)c3ccc4sc5c(c4c3)CCNC5=O)C[C@H]21,-,2.101,-,3.016
CCS(=O)(=O)N1C[C@@H]2CN(Cc3ccco3)CCO[C@@H]2C1,-,19.99,-,-18.08
Cc1cc(C)c(CNC(=O)NCC2Cc3ccccc3O2)c(=O)[nH]1 (stereo not given),1.622,-3.039,2.045,2.335
CSc1ccc(NCc2csc(C)n2)cc1F,10.36,-19.23,1.855,11.98
Cc1ccc(N2CCCC(NCC(=O)NC3CCOCC3)C2)nn1 (stereo not given),24.15,-2.632,-1.294,2.089
Cc1nc(C)n(C2CCCN(C(=O)c3nc(C)n4ccccc34)C2)n1 (stereo not given),11.72,3.173,2.2,-4.104
O=C(O)C(F)(F)F.O=C(O)C(F)(F)F.[H][C@]12C[C@@H](Cn3cncn3)N(C)[C@@]1([H])CCN(C1CCOCC1)C2,24.81,-,19.31,-
Cc1cc(Cl)ccc1C(=O)C1CCCN(Cc2cnc(N(C)C)s2)C1 (stereo not given),19.85,2.397,2.422,9.002
Cc1nc(S(=O)(=O)CCn2cccn2)n(C2CCCC2)c1C,20.72,-1.168,2.953,0
Cc1nc(N2CCC(C(O)c3nccn3C)CC2)c2c(C)noc2n1 (stereo not given),-11.62,-3.744,-13.08,-1.489
Cl.O=C(c1ccnc(C2CCNCC2)c1)N1CCCOCC1,-13.39,-,-9.48,-
O=C(CCc1cc(Cl)no1)N1CCCCC1CCn1ccnc1 (stereo not given),6.161,0.3882,-11.57,3.297
Cc1ccncc1C(=O)N1C[C@H]2CN(CC3CCC3)C[C@@]2(C(=O)O)C1,-,-0.7322,-,3.469
CC(c1cccnc1)N1CCN(CCc2ccccn2)CC1 (stereo not given),-11.33,0.3846,-15.16,0.4914
Cc1ccc(CN(CCCn2ccnc2)Cc2cccs2)s1,-,6.435,-,9.732
O=C(NC1CCCNC1)c1cc(COc2cccc(C(F)(F)F)c2)[nH]n1 (stereo not given),24.64,0.831,17.86,-36.49
O=C(CC1=CCCCC1)N1CCC(Cn2cc(CCO)nn2)CC1,-3.929 and 11.46,-2.941,11.65,-0.2545
Cc1ccc(C(=O)N2CCN(c3ncnc4nc(N)ccc34)CC2)o1,19.48,4.175,3.612,6.699

The last 4 entries again:

{"structure": "Cc1ccc(CN(CCCn2ccnc2)Cc2cccs2)s1", "B": 6.435, "D": 9.732}
{"structure": "O=C(NC1CCCNC1)c1cc(COc2cccc(C(F)(F)F)c2)[nH]n1", "stereo": "stereo not given", "A": 24.64, "B": 0.831, "C": 17.86, "D": -36.49}
{"structure": "O=C(CC1=CCCCC1)N1CCC(Cn2cc(CCO)nn2)CC1", "A": "-3.929 and 11.46", "B": -2.941, "C": 11.65, "D": -0.2545}
{"structure": "Cc1ccc(C(=O)N2CCN(c3ncnc4nc(N)ccc34)CC2)o1", "A": 19.48, "B": 4.175, "C": 3.612, "D": 6.699}